At least one structure is not confirmed: it was looked up by name or label, or the drawing left a doubt.
System: lung adenocarcinoma (LLC cell line) subcutaneous tumors
Experiment: Subcutaneous tumor growth at the animal level
Format: in vivo
Conditions: LLC subcutaneous tumors in C57BL/6 mice; compared to PBS group; Flu at same dose as in the TMP-F

For `CC(C)n1c(/C=C/C(O)CC(O)CC(=O)O)c(-c2ccc(F)cc2)c2ccccc21` (stereo not shown) [Flu, Fluvastatin], the tumor growth was “does not achieve the ideal tumor inhibitory effect”.
